Assay results: PMC7819943, “Rice protein-binding microarrays: a tool to detect cis-acting elements near promoter regions in rice”
The other results are listed elsewhere or left out.

Protein sequences, listed by entry. Tags and fused reporters are not part of them.
UniProt Q0JBA9, entry or part of it: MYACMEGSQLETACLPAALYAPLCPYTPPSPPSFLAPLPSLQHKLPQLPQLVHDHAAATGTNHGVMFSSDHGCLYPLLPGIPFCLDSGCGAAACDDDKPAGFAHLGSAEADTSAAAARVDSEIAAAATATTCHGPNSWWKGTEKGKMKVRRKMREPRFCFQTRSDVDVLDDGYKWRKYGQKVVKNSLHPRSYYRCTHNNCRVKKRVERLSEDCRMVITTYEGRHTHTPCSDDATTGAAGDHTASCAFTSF

Each sequence was assayed against OsWRKY34 (Oryza sativa, UniProt Q0JBA9 1-250) (assay: protein-binding microarray (RPBM); PBS, 2% BSA, 51.3 ng/ul salmon testes DNA, 50 uM zinc acetate, 200 nM TF, 25 C, 1 h; high values mean tight binding). Settings: protein: recombinant; tags: N-terminal polyhistidine and DsRed monomer fusion (pET32a); label: CyDye5-dUTP incorporated in the synthesized complementary strand; 3' TTTTT single-stranded linker to array surface; dsDNA, one strand shown.
Summary of the method: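 Transcription factors were made in E. coli BL21-CodonPlus as N-terminal fusions to a polyhistidine tag and DsRed, then purified on Ni–NTA. After primer extension with Cy5-dUTP and blocking with 2% BSA, a custom Agilent array was exposed for 1 h at 25 °C to 200 nM protein in PBS, 2% BSA, salmon testes DNA and 50 µM zinc acetate. Washed arrays were scanned on an Axon 4000B, and the binding signal is per-feature fluorescence intensity in arbitrary units.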

Sequence	binding signal
TATCAATAGGTGTTTTCACTTGCTTATACTTTCAATTACACGGAGTCACCTAGTGCAG	8490 fluorescence intensity (a.u.)
AAACAAACACAGAGCTTCTCTCCTCTGTTCTCCTTCTCTGCGGAGTCACCTAGTGCAG	8090 fluorescence intensity (a.u.)
CAAATATCCGATGAGGCACCCAAAAATTTTCTTTTCGCGACGGAGTCACCTAGTGCAG	8710 fluorescence intensity (a.u.)
TGATCATCTATGCATTTCAAGATTAGCGTTGACTTGGAAACGGAGTCACCTAGTGCAG	10600 fluorescence intensity (a.u.)
TCACTGACATATGGGCCCCATATATTTATTTTATTATTTTCGGAGTCACCTAGTGCAG	8170 fluorescence intensity (a.u.)
TTCCCTTTTTCTTCCTTTTCTCTCTTTTCTCAGCCGCTACCGGAGTCACCTAGTGCAG	8170 fluorescence intensity (a.u.)
TATCTACAGTACTTTAAACACAACTTTTCGTTTTTTATATCGGAGTCACCTAGTGCAG	9420 fluorescence intensity (a.u.)
TATTACGTTACTTAGCGGCCCGAACTTGGATAACTCCCTACGGAGTCACCTAGTGCAG	8480 fluorescence intensity (a.u.)
AACAAAATAATTTCGGTTTTGCAAAATTTTCATGGTTTTCCGGAGTCACCTAGTGCAG	8540 fluorescence intensity (a.u.)
TTGATATCCATCTGCCTATTGGCCATTCCTCTAGGCACTCCGGAGTCACCTAGTGCAG	8420 fluorescence intensity (a.u.)
CATCCATCTCCTTGCCCTTATCCGATCGCTATTAGAGCTCCGGAGTCACCTAGTGCAG	9930 fluorescence intensity (a.u.)
TCCGCCTCTCGCGTCGTCGTTTCCACAGTACTACTACAGTCGGAGTCACCTAGTGCAG	10100 fluorescence intensity (a.u.)
TGGGCGGTTAATTTGACTTCGATGTTCAGTACCTTGTGGGCGGAGTCACCTAGTGCAG	12300 fluorescence intensity (a.u.)
GCTCATCTTTCAGCAGCATCGACAGCCTCAGACGCTCCTCCGGAGTCACCTAGTGCAG	8800 fluorescence intensity (a.u.)
GCTATTCCTGTCTTTACCTCATCTTTCTACAATCCACATCCGGAGTCACCTAGTGCAG	10100 fluorescence intensity (a.u.)
ATGATTTCTTGCCTCGGACAGCCACTCCTTTAGAAGACATCGGAGTCACCTAGTGCAG	9000 fluorescence intensity (a.u.)
CATGATTCTTACCAAGCTTTTTTTCCCGGTCAACTAGTAACGGAGTCACCTAGTGCAG	9340 fluorescence intensity (a.u.)
CCATTTCCGACGAAATTTCTGAAAACTGTTTACTACGTCCCGGAGTCACCTAGTGCAG	9170 fluorescence intensity (a.u.)
CGCTCGACTTCTCTTCTCTCATACACGTGTCATTAAATTTCGGAGTCACCTAGTGCAG	11500 fluorescence intensity (a.u.)
TTACACTTGCATTCCTATCCAAATCCTATGTTTTCTCAATCGGAGTCACCTAGTGCAG	13400 fluorescence intensity (a.u.)
TCTCTCCTCTATATTATCGCCGACGCGCGCGCGCCACTGCCGGAGTCACCTAGTGCAG	9370 fluorescence intensity (a.u.)

Sequence	binding signal
ATCGGATCTATGTTTTTTTTTCTATTTTTTTTGCCGCTTTCGGAGTCACCTAGTGCAG	8430 fluorescence intensity (a.u.)
TAAGGTTTCTTCTGGGATCATTACATATACCTATATGGTTCGGAGTCACCTAGTGCAG	8100 fluorescence intensity (a.u.)
GCAATTTCTCACCGGACCATCGCTTGGCCTCGAAGCATCTCGGAGTCACCTAGTGCAG	9440 fluorescence intensity (a.u.)
TCACCTTTTGTTTAATAATCACATGTCTTTGTACTATTTTCGGAGTCACCTAGTGCAG	11100 fluorescence intensity (a.u.)
GTAGTGGCTCTGTGCTCGCTAGCTTCGTCATCTACCACTGCGGAGTCACCTAGTGCAG	10900 fluorescence intensity (a.u.)
GCAGCGCTGTCGTTCGTTGCACCACCACCACCACCTCCACCGGAGTCACCTAGTGCAG	8380 fluorescence intensity (a.u.)
ATAAGCTATCATGTCTTCGGGCTGACACGACCCAAATCTTCGGAGTCACCTAGTGCAG	8240 fluorescence intensity (a.u.)
TCGTCATCAAGACCTTCCTATTGATGCCATCACCGCGTCCCGGAGTCACCTAGTGCAG	8720 fluorescence intensity (a.u.)
GTCCGGCGGCTGCCCAACAGAATCCACCATGGTTTCTCCACGGAGTCACCTAGTGCAG	8150 fluorescence intensity (a.u.)
TACCCGCCCCTATCACCCCGCGCCTCGGCCTCGCTCGCTTCGGAGTCACCTAGTGCAG	8300 fluorescence intensity (a.u.)
CCAAAAGCTCCAAGCTCCAGTTTTTACACCATTTCGTTTTCGGAGTCACCTAGTGCAG	8920 fluorescence intensity (a.u.)
ATTTCCACCTCACCCAACCCTGCCACGTCAATCTATCATACGGAGTCACCTAGTGCAG	10100 fluorescence intensity (a.u.)
AACATGCGTACTCTGATTCTTCCTACTACGAGAACATTGACGGAGTCACCTAGTGCAG	10400 fluorescence intensity (a.u.)
GTTTTACACTTATATTCCTATTAAAATTTTCCGTTTTTCTCGGAGTCACCTAGTGCAG	8490 fluorescence intensity (a.u.)
GTTGTATTACTCTCTCATTAATTCACCATCGTTGTTTCTTCGGAGTCACCTAGTGCAG	9960 fluorescence intensity (a.u.)
GCTTGGTTTGCTTCCGGTTTCCGATTAGGTTATTACTGTTCGGAGTCACCTAGTGCAG	9450 fluorescence intensity (a.u.)
GGCCCAACTGCTCCTTCTACTGACTCTCACGCACTAATTACGGAGTCACCTAGTGCAG	13500 fluorescence intensity (a.u.)
GGTCTCATGTCCAGCTGTTTGAATTTTGTACCTGAAATATCGGAGTCACCTAGTGCAG	10700 fluorescence intensity (a.u.)
ATGAGTCGTTGTGCCATTGGTCGGAGCTTGTCCTTTATTTCGGAGTCACCTAGTGCAG	14700 fluorescence intensity (a.u.)
GTGCTTCATCCTAGCCTACGTTGCTGTTCCCGCTCGCCACCGGAGTCACCTAGTGCAG	8310 fluorescence intensity (a.u.)
CGTCTCTCGTTCTCTCCTCTCGTTTTCTCCGCTCTCTACTCGGAGTCACCTAGTGCAG	10200 fluorescence intensity (a.u.)

Quoted at random: two records from the list.
Sequence	binding signal
GGCCCAACTGCTCCTTCTACTGACTCTCACGCACTAATTACGGAGTCACCTAGTGCAG	13500 fluorescence intensity (a.u.)
GTCCGGCGGCTGCCCAACAGAATCCACCATGGTTTCTCCACGGAGTCACCTAGTGCAG	8150 fluorescence intensity (a.u.)
